{
  "sequences": {"note": "Protein sequences, listed by entry. Tags and fused reporters are not part of them.", "UniProt P31751": "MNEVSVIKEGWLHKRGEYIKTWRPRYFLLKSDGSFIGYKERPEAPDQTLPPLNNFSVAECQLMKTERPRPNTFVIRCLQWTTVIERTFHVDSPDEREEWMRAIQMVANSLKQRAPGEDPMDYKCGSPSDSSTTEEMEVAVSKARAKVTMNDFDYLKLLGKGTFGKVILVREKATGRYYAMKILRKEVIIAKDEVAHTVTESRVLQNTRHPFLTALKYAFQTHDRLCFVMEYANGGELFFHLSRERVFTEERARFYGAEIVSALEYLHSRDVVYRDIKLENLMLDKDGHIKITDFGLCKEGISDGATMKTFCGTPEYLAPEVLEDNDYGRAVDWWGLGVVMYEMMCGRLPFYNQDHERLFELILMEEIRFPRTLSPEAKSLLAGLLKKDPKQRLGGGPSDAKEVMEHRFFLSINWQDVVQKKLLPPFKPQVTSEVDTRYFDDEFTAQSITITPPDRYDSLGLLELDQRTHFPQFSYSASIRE", "UniProt P49759": "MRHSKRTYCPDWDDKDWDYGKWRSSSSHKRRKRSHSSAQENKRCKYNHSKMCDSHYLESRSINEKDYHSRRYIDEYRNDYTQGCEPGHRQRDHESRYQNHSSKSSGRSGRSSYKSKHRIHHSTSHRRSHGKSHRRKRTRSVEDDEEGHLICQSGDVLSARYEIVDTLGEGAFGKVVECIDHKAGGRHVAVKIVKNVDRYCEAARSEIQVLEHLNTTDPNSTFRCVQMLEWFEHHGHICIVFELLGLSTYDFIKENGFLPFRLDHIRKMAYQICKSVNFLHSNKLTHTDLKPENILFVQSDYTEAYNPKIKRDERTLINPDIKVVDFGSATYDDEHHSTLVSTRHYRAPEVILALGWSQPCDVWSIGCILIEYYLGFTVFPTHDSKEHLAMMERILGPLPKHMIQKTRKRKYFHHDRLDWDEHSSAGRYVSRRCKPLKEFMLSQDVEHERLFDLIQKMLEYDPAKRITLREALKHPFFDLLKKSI", "UniProt Q96SB4": "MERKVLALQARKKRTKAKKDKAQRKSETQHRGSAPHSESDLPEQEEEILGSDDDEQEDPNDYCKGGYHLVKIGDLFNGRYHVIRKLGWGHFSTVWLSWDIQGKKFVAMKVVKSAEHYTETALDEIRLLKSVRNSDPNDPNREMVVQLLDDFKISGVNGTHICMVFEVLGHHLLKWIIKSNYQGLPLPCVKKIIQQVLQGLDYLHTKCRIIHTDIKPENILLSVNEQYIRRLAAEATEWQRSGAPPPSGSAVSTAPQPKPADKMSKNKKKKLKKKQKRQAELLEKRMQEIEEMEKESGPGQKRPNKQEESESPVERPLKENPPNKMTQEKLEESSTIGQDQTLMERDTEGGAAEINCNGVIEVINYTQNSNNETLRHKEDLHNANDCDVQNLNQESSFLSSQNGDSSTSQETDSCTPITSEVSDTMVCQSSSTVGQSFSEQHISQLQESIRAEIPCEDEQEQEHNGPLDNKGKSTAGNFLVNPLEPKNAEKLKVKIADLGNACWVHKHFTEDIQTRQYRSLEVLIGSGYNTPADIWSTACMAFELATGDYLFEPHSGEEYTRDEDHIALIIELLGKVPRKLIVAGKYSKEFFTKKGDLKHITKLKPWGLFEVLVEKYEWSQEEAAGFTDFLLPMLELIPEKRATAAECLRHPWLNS"},
  "source": "paper doi:10.1101/2020.09.15.297002",
  "molecules": {"B1": {"name": "RNA binding motif 20 (RBM20), His-tagged, from plasmid pEGFP-C1-8his-RBM20 WT (protein, UniProt E9PT37 1-1207)", "chain": "MVLAAAMSQDADPSGPEQPDRDACIVPGVQGPPAPQGQQGMQPLPPPLPPPPQPQSSLPQIIQNAAKLLDKNPFSVSSQNPLLTSPASVQLAQIQAQLTLHRLKMAQTAVTNNTAAATVLNQVLSKVAMSQPLFNQLRHPSVLGTTHGPTGVSQHAATVPSAHFPSTAIAFSPPSQAGGPGPSVSLPSQPPNAMVVHTFSGVVPQTPAQPAVILSIGKAGPTPATTGFYDYGKANPGQAYGSETEGQPGFLPASASAAASGGVTYEGHYSHTGQDGQATFSKDFYGPSAQGSHAAGGFPADQAGSMKGDVGGLLQGTNSQWERPSGFSGQNKADITAGPGLWAPPASQPYELYDPEEPTSDRAPPAFGSRLNNSKQGFNCSCRRTKEGQAMLSVRPLQGHQLNDFRGLAPLHLPHICSICDKKVFDLKDWELHVKGKLHAQKCLLFSESAGLRSICATGEGTLSASANSTAVYNPTGNEDYTSTLGTSYAAIPTRAFAQSNPMFPSASSGTNFAQRKGAGRVVHICNLPEGSCTENDVINLGLPFGKVTNYILMKSTNQAFLEMAYTEAAQAMVQYYQEKPALINGEKLLIRMSTRYKELQLKKPGKNVAAIIQDIHSQRERCMLREADRYGPERPRSRSPMSRSLSPRSHSPPGPSRADWGNGRDSYAWRDEDRETVPRRENGEDKRDRLDVWAHDRKHYPRQLDKAELDERLEGGRGYREKYLKSGSPGPLHSASGYKGREDGYHRKETKAKLDKHPKQQQQDVPGRSRRKEEARLREPRHPHPEDSGKEEDLEPKVTRAPEGTKSKQSEKSKTKRADRDQEGADDKKEGRGAENEAGTEEQEGMEESPASVGTQQEGTESSDPENTRTKKGQDCDSGSEPEGDNWYPTNMEELVTVDEVGEEDFIMEPDIPELEEIVPIDQKDKILPEICPCVTATLGLDLAKDFTKQGETLGNGDAELSPKLPGQVPSTSTSCPNDTDMEMAGLNLDAERKPAESETGLSPEVSNCYEKEARGAEGSDVRLAPAAQRMSSPQPADERAQQSSPFLDDCKARGSPEDGPHEVSPLEEKASPTTESDLQSQACQENSRYTETRSLNSRSPEFTEAELKEPLSLPSWEPEVFSELSIPLGVEFVVPRTGFYCKLCGLFYTSEEAAKVSHCRSTVHYRNLQKYLSQLAEEGLKETEGVDSPSPERSGIGPHLERKKL"}},
  "assay_in_all_cases": "co-IP",
  "key": {"[1]": {"biological_target": "T1, RNA binding motif 20 (RBM20), His-tagged, from plasmid pEGFP-C1-8his-RBM20 WT (rat) (UniProt E9PT37)", "T1 sequence": "B1 chain"}, "[2]": {"biological_target": "Myr-HA-Akt2, from plasmid pcDNA3-Myr-HA-Akt2 (UniProt P31751)"}, "[3]": {"biological_target": "cdc2-like kinase 1 (CLK1), from plasmid pcDNA3.1-mcherry-CLK1 (UniProt P49759)"}, "[4]": {"biological_target": "SR-protein kinase 1 (SRPK1), from plasmid pcDNA3.1-mcherry-SRPK1 (UniProt Q96SB4)"}},
  "note": "These are yes or no findings as the source states them, for the method shown. In cells and extracts the contact can be indirect. Some results given as binding are weak or reduced against the parent protein; the word gives no strength. Where a sequence is shown, tags or fusion partners need not be part of it.",
  "data": [
    {"molecule": "Myr-HA-Akt2, from plasmid pcDNA3-Myr-HA-Akt2 (from UniProt P31751 1-481) (enzyme)", "values": [
      {"measurement": "binding", "setting": "[1]", "result": "binds"}
    ]},
    {"molecule": "SR-protein kinase 1 (SRPK1), from plasmid pcDNA3.1-mcherry-SRPK1 (from UniProt Q96SB4 1-655) (enzyme)", "values": [
      {"measurement": "binding", "setting": "[1]", "result": "binds"}
    ]},
    {"molecule": "cdc2-like kinase 1 (CLK1), from plasmid pcDNA3.1-mcherry-CLK1 (from UniProt P49759 1-484) (enzyme)", "values": [
      {"measurement": "binding", "setting": "[1]", "result": "binds"}
    ]},
    {"molecule": "B1", "values": [
      {"measurement": "binding", "setting": "[2]", "result": "binds"},
      {"measurement": "binding", "setting": "[3]", "result": "binds"},
      {"measurement": "binding", "setting": "[4]", "result": "binds"}
    ]}
  ]
}
